Taken from: PubChem BioAssay AID1224826 (NIAID, 2016)
Aim: 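Genes that change LPS-induced Tnf promoter activity in mouse macrophages when knocked down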 (primary screen). System: RAW264.7 G9 macrophages from mouse bearing reporters for p65 (GFP) and the Tnf promoter (mCherry). Reagent: siRNA pool against mouse genes, 100 nM. Time to read-out: 16 h of LPS stimulation, after 2 days of siRNA transfection. Challenge: bacterial lipopolysaccharide (Salmonella minnesota R595), 10 ng/ml. Read-out: 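Nuclear mCherry signal of the Tnf promoter reporter measured by imaging after background removal, scaled to each plate median and turned into robust z-scores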. Scale: Tnf reporter robust z-score: higher = stronger Tnf promoter reporter signal after LPS; Tnf reporter intensity: higher = stronger Tnf promoter reporter signal. Hit rule: 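a well counts as active at a score of -1.3 or below (Tlr4 knock-down control median) or above 3 (raised signal); controls and wells holding fewer than 50 cells are excluded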. Meaning of the calls: active = Tnf reporter clearly lowered or raised; inactive = no clear change in Tnf reporter.
The whole screen tested about 17,000 reagents; below is a random part of them. In the full data, about 1,110 (6.6%) are marked active. 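Active means lowered or raised reporter signal; replicate intensities are raw and not normalised per plate.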 The numbers tell different reagents against one gene apart. Reagent sequences are not shown.

gene | pool no. | Tnf reporter robust z-score | fewer than 50 cells in well | Tnf reporter intensity, replicate 1 | Tnf reporter intensity, replicate 2 | Call
Pcyox1 (prenylcysteine oxidase 1) | 1 | 2.24 | enough cells in well | 298 | 196 | inactive
Dmac2 (distal membrane arm assembly complex 2) | 1 | – | fewer than 50 cells per well; well left out of calls | 135 | 44 | inactive
Lrrc45 (leucine rich repeat containing 45) | 1 | 1.58 | enough cells in well | 315 | 320 | inactive
Npb (neuropeptide B) | 1 | -0.44 | enough cells in well | 155 | 132 | inactive
Tedc1 (tubulin epsilon and delta complex 1) | 1 | – | fewer than 50 cells per well; well left out of calls | 162 | 40.8 | inactive
Snx1 (sorting nexin 1) | 1 | – | fewer than 50 cells per well; well left out of calls | 43.5 | 37.2 | inactive
Mid1ip1 | 1 | 0.11 | enough cells in well | 165 | 76.3 | inactive
Tpo (thyroid peroxidase) | 1 | 0.01 | enough cells in well | 229 | 233 | inactive
Asprv1 (aspartic peptidase, retroviral-like 1) | 1 | – | fewer than 50 cells per well; well left out of calls | 76.6 | 71.3 | inactive
Pde6g (phosphodiesterase 6G, cGMP-specific, rod, gamma) | 1 | 0.11 | enough cells in well | 225 | 209 | inactive
Tmem176a (transmembrane protein 176A) | 1 | 0.19 | enough cells in well | 214 | 76.4 | inactive
Efl1 (elongation factor like GTPase 1) | 1 | 1.35 | enough cells in well | 259 | 213 | inactive
Or52u1 (olfactory receptor family 52 subfamily U member 1) | 1 | -0.15 | enough cells in well | 95.6 | 109 | inactive
Tgm2 (transglutaminase 2, C polypeptide) | 1 | 0.21 | enough cells in well | 224 | 160 | inactive
Daam1 (dishevelled associated activator of morphogenesis 1) | 1 | 0.5 | enough cells in well | 356 | 172 | inactive
Or9i2 (olfactory receptor family 9 subfamily I member 2) | 1 | 0.83 | enough cells in well | 187 | 185 | inactive
Rps20 (ribosomal protein S20) | 1 | – | fewer than 50 cells per well; well left out of calls | 115 | 73.6 | inactive
Shh (sonic hedgehog signaling molecule) | 1 | 0.68 | enough cells in well | 351 | 258 | inactive
Tcstv3 (2 cell stage variable group member 3) | 1 | – | fewer than 50 cells per well; well left out of calls | 98.4 | 30.9 | inactive
Or10al7 (olfactory receptor family 10 subfamily AL member 7) | 1 | -0.33 | enough cells in well | 164 | 89.5 | inactive
Nalcn (sodium leak channel, non-selective) | 1 | 1.44 | enough cells in well | 221 | 263 | inactive
Slc10a1 | 1 | 0.31 | enough cells in well | 324 | 224 | inactive
Usp53 (ubiquitin specific peptidase 53) | 1 | 0.93 | enough cells in well | 222 | 147 | inactive
Usp53 (ubiquitin specific peptidase 53) | 2 | -0.74 | enough cells in well | 143 | 99.3 | inactive
Vcl (vinculin) | 1 | -0.7 | enough cells in well | 164 | 189 | inactive
Anks1 (ankyrin repeat and SAM domain containing 1) | 1 | -1.54 | enough cells in well | 68.8 | 120 | active
Dsc3 (desmocollin 3) | 1 | -0.82 | enough cells in well | 189 | 128 | inactive
Slc7a4 | 1 | 1.1 | enough cells in well | 149 | 125 | inactive
B4galnt2 (beta-1,4-N-acetyl-galactosaminyl transferase 2) | 1 | -0.36 | enough cells in well | 255 | 95.2 | inactive
Xpo7 (exportin 7) | 1 | 1.29 | enough cells in well | 95.9 | 185 | inactive
Xpo7 (exportin 7) | 2 | – | fewer than 50 cells per well; well left out of calls | 160 | 30.2 | inactive
Adra2c (adrenergic receptor, alpha 2c) | 1 | -0.91 | enough cells in well | 124 | 249 | inactive
Alg5 (ALG5 dolichyl-phosphate beta-glucosyltransferase) | 1 | 0.37 | enough cells in well | 184 | 257 | inactive
Tcl1b4 (T cell leukemia/lymphoma 1B, 4) | 1 | – | fewer than 50 cells per well; well left out of calls | 86.4 | 36.9 | inactive
Cep170 (centrosomal protein 170) | 1 | 0.83 | enough cells in well | 204 | 200 | inactive
Cers5 (ceramide synthase 5) | 1 | -0.53 | enough cells in well | 175 | 96.5 | inactive
BC005624 (cDNA sequence BC005624) | 1 | 0.55 | enough cells in well | 271 | 216 | inactive
Brk1 (BRICK1, SCAR/WAVE actin-nucleating complex subunit) | 1 | 0.47 | enough cells in well | 245 | 181 | inactive
Plbd1 (phospholipase B domain containing 1) | 1 | 1.19 | enough cells in well | 365 | 109 | inactive
Rbp3 (retinol binding protein 3, interstitial) | 1 | 0.24 | enough cells in well | 340 | 217 | inactive
Vmn1r21 (vomeronasal 1 receptor 21) | 1 | 0.56 | enough cells in well | 105 | 107 | inactive
Wsb2 (WD repeat and SOCS box-containing 2) | 1 | 2.64 | enough cells in well | 251 | 217 | inactive
Sgcg (sarcoglycan, gamma (dystrophin-associated glycoprotein)) | 1 | -0.44 | enough cells in well | 258 | 167 | inactive
Spock3 | 1 | 3.07 | enough cells in well | 270 | 141 | active
1810024B03Rik (RIKEN cDNA 1810024B03 gene) | 1 | – | fewer than 50 cells per well; well left out of calls | 187 | 93.9 | inactive
Pus7l (pseudouridylate synthase 7-like) | 1 | – | fewer than 50 cells per well; well left out of calls | 163 | 57.5 | inactive
Cacna1d (calcium channel, voltage-dependent, L type, alpha 1D subunit) | 1 | -1.43 | enough cells in well | 67.8 | 93.7 | active
Ubxn1 (UBX domain protein 1) | 1 | 0.02 | enough cells in well | 295 | 77.5 | inactive
Gpx4 (glutathione peroxidase 4) | 1 | -0.98 | enough cells in well | 170 | 104 | inactive
Chad (chondroadherin) | 1 | -1.16 | enough cells in well | 82.3 | 131 | inactive
Susd3 (sushi domain containing 3) | 1 | -0.77 | enough cells in well | 180 | 61.2 | inactive
Pbxip1 | 1 | -0.58 | enough cells in well | 184 | 154 | inactive
Pbld2 (phenazine biosynthesis-like protein domain containing 2) | 1 | 0.28 | enough cells in well | 189 | 60.5 | inactive
Cfap61 (cilia and flagella associated protein 61) | 1 | -0.26 | enough cells in well | 208 | 54.3 | inactive
Insl6 (insulin-like 6) | 1 | -0.37 | enough cells in well | 200 | 139 | inactive
Mettl18 (methyltransferase like 18) | 1 | -0.52 | enough cells in well | 125 | 63.2 | inactive
Hif3a (hypoxia inducible factor 3, alpha subunit) | 1 | -0.63 | enough cells in well | 174 | 160 | inactive
Ywhae | 1 | -0.54 | enough cells in well | 191 | 185 | inactive

A stretch of the results above, as a working copy:
gene | pool no. | Tnf reporter robust z-score | fewer than 50 cells in well | Tnf reporter intensity, replicate 1 | Tnf reporter intensity, replicate 2 | Call
Asprv1 (aspartic peptidase, retroviral-like 1) | 1 | – | fewer than 50 cells per well; well left out of calls | 76.6 | 71.3 | inactive
Pde6g (phosphodiesterase 6G, cGMP-specific, rod, gamma) | 1 | 0.11 | enough cells in well | 225 | 209 | inactive
Tmem176a (transmembrane protein 176A) | 1 | 0.19 | enough cells in well | 214 | 76.4 | inactive
Efl1 (elongation factor like GTPase 1) | 1 | 1.35 | enough cells in well | 259 | 213 | inactive
Or52u1 (olfactory receptor family 52 subfamily U member 1) | 1 | -0.15 | enough cells in well | 95.6 | 109 | inactive
